# Laboratory results reported in article doi:10.1101/2022.06.02.494603.
# Protein sequences, listed by entry. Tags and fused reporters are not part of them.
# UniProt Q96CV9: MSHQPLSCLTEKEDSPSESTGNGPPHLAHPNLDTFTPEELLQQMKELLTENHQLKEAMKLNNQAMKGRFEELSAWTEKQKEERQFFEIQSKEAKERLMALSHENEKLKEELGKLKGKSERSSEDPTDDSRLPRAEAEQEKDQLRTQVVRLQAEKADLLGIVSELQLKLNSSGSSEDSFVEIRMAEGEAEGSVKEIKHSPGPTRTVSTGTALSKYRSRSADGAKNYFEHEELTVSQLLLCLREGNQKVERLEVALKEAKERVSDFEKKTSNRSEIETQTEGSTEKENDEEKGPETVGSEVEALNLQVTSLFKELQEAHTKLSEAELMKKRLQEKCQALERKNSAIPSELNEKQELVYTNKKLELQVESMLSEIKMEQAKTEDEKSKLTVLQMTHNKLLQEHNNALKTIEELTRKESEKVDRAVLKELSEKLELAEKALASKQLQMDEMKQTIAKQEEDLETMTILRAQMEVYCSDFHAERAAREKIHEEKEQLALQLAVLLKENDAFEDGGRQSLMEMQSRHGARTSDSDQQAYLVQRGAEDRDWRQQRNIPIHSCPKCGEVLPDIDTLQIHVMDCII
# No constants are given. Whether binding was seen depends on the method and setting. Binding seen in cells or lysates may run through a third protein. Some entries that bind do so weakly or less than the wild type. Where a sequence is shown, tags or fusion partners need not be part of it.
# B1: TANK-binding kinase 1, wild type, untagged (protein, UniProt Q9UHD2 1-729)
# chain: MQSTSNHLWLLSDILGQGATANVFRGRHKKTGDLFAIKVFNNISFLRPVDVQMREFEVLKKLNHKNIVKLFAIEEETTTRHKVLIMEFCPCGSLYTVLEEPSNAYGLPESEFLIVLRDVVGGMNHLRENGIVHRDIKPGNIMRVIGEDGQSVYKLTDFGAARELEDDEQFVSLYGTEEYLHPDMYERAVLRKDHQKKYGATVDLWSIGVTFYHAATGSLPFRPFEGPRRNKEVMYKIITGKPSGAISGVQKAENGPIDWSGDMPVSCSLSRGLQVLLTPVLANILEADQEKCWGFDQFFAETSDILHRMVIHVFSLQQMTAHKIYIHSYNTATIFHELVYKQTKIISSNQELIYEGRRLVLEPGRLAQHFPKTTEENPIFVVSREPLNTIGLIYEKISLPKVHPRYDLDGDASMAKAITGVVCYACRIASTLLLYQELMRKGIRWLIELIKDDYNETVHKKTEVVITLDFCIRNIEKTVKVYEKLMKINLEAAELGEISDIHTKLLRLSSSQGTIETSLQDIDSRLSPGGSLADAWAHQEGTHPKDRNVEKLQVLLNCMTEIYYQFKKDKAERRLAYNEEQIHKFDKQKLYYHATKAMTHFTDECVKKYEAFLNKSEEWIRKMLHLRKQLLSLTNQCFDIEEEVSKYQEYTNELQETLPQKMFTASSGIKHTMTPIYPSSNTLVEMTLGMKKLKEEMEGVVKELAENNHILERFGSLTMDGGLRNVDCL
# Molecular target: optineurin, C-terminal myc-FLAG-tagged (UniProt Q96CV9)
# Experiment: co-IP
binder,measurement,value
B1,binding,binds
